Laboratory results as given in the supplement of paper PMC8728848.
Some of the results follow.

Assays:
Assay in all cases: glycan array binding signal (z-score within array); higher = stronger binding
Details in all cases: glycan notation: IUPAC condensed, linker removed
Gal6S(b1-3)GlcNAc6S = molecular target: Gal6S(b1-3)GlcNAc6S
Summary of the method: (§1)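 Glycan array binding is given as a within-array Z-score, which can be read as non-binding when negative. The arrays, 3228 of them, came from the Consortium for Functional Glycomics database and were retained only where the protein sequence was available. Z-scores were averaged across arrays of the same protein sequence at different concentrations or buffers and across linkers.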

Gal6S(b1-4)Glc = molecular target: Gal6S(b1-4)Glc
Summary of the method: as §1

Gal6S(b1-4)Glc6S = molecular target: Gal6S(b1-4)Glc6S
Summary of the method: as §1

Gal6S(b1-4)GlcNAc = molecular target: Gal6S(b1-4)GlcNAc
Summary of the method: as §1

Gal6S(b1-4)GlcNAc6S = molecular target: Gal6S(b1-4)GlcNAc6S
Summary of the method: as §1

GalNAc(a1-3)Gal = molecular target: GalNAc(a1-3)Gal
Summary of the method: as §1

GalNAc(a1-3)GalNAc = molecular target: GalNAc(a1-3)GalNAc
Summary of the method: as §1

[1] = molecular target: GalNAc(a1-3)GalNAc(b1-3)Gal(a1-4)Gal(b1-4)Glc
Summary of the method: as §1

[2] = molecular target: GalNAc(a1-3)GalNAc(b1-3)Gal(a1-4)Gal(b1-4)GlcNAc
Summary of the method: as §1

GalNAc(b1-3)Gal = molecular target: GalNAc(b1-3)Gal
Summary of the method: as §1

[3] = molecular target: GalNAc(b1-3)Gal(a1-4)Gal(b1-4)GlcNAc
Summary of the method: as §1

[4] = molecular target: GalNAc(b1-3)Gal(a1-4)Gal(b1-4)GlcNAc(b1-3)Gal(b1-4)Glc
Summary of the method: as §1

[5] = molecular target: GalNAc(b1-3)Gal(a1-6)Gal(b1-4)Glc
Summary of the method: as §1

GalNAc(b1-3)GalNAc = molecular target: GalNAc(b1-3)GalNAc
Summary of the method: as §1

GalNAc(b1-3)GlcNAc = molecular target: GalNAc(b1-3)GlcNAc
Summary of the method: as §1

GalNAc(b1-4)Gal(b1-4)Glc = molecular target: GalNAc(b1-4)Gal(b1-4)Glc
Summary of the method: as §1

GalNAc(b1-4)GlcNAc = molecular target: GalNAc(b1-4)GlcNAc
Summary of the method: as §1

[6] = molecular target: GalNAc(b1-4)GlcNAc(b1-2)Man
Summary of the method: as §1

[7] = molecular target: GalNAc(b1-4)GlcNAc(b1-2)Man(a1-3)[GalNAc(b1-4)GlcNAc(b1-2)Man(a1-6)]Man(b1-4)GlcNAc(b1-4)GlcNAc
Summary of the method: as §1

[8] = molecular target: GalNAc(b1-4)GlcNAc(b1-3)GalNAc(b1-4)GlcNAc
Summary of the method: as §1

GalNAc(b1-4)GlcNAc6S = molecular target: GalNAc(b1-4)GlcNAc6S
Summary of the method: as §1

GalNAc(b1-6)GalNAc = molecular target: GalNAc(b1-6)GalNAc
Summary of the method: as §1

GalNAc3S(b1-4)GlcNAc = molecular target: GalNAc3S(b1-4)GlcNAc
Summary of the method: as §1

GalNAc3S(b1-4)GlcNAc3S = molecular target: GalNAc3S(b1-4)GlcNAc3S
Summary of the method: as §1

[9] = molecular target: GalNAc3S(b1-4)[Fuc(a1-3)]GlcNAc
Summary of the method: as §1

GalNAc4S6S(b1-4)GlcNAc = molecular target: GalNAc4S6S(b1-4)GlcNAc
Summary of the method: as §1

GalNAc6S(b1-4)GlcNAc = molecular target: GalNAc6S(b1-4)GlcNAc
Summary of the method: as §1

Glc(a1-4)Glc = molecular target: Glc(a1-4)Glc
Summary of the method: as §1

[10] = molecular target: Glc(a1-4)Glc(a1-4)Glc(a1-4)Glc
Summary of the method: as §1

Glc(a1-6)Glc(a1-6)Glc = molecular target: Glc(a1-6)Glc(a1-6)Glc
Summary of the method: as §1

[11] = molecular target: Glc(a1-6)Glc(a1-6)Glc(a1-6)Glc
Summary of the method: as §1

Glc(b1-4)Glc = molecular target: Glc(b1-4)Glc
Summary of the method: as §1

Glc(b1-6)Glc = molecular target: Glc(b1-6)Glc
Summary of the method: as §1

GlcA(b1-3)Gal = molecular target: GlcA(b1-3)Gal
Summary of the method: as §1

GlcA(b1-3)GlcNAc = molecular target: GlcA(b1-3)GlcNAc
Summary of the method: as §1

GlcA(b1-6)Gal = molecular target: GlcA(b1-6)Gal
Summary of the method: as §1

[12] = molecular target: GlcA3S(b1-3)Gal(b1-4)GlcNAc(b1-2)Man
Summary of the method: as §1

[13] = molecular target: GlcA3S(b1-3)Gal(b1-4)GlcNAc(b1-3)Gal(b1-4)Glc
Summary of the method: as §1

[14] = molecular target: GlcNAc(a1-3)Gal(b1-4)GlcNAc
Summary of the method: as §1

[15] = molecular target: GlcNAc(a1-4)Gal(b1-3)GlcNAc
Summary of the method: as §1

[16] = molecular target: GlcNAc(a1-4)Gal(b1-4)GalNAc
Summary of the method: as §1

[17] = molecular target: GlcNAc(a1-4)Gal(b1-4)GlcNAc
Summary of the method: as §1

[18] = molecular target: GlcNAc(a1-4)Gal(b1-4)GlcNAc(b1-3)Gal(b1-4)Glc
Summary of the method: as §1

[19] = molecular target: GlcNAc(a1-4)Gal(b1-4)GlcNAc(b1-3)Gal(b1-4)GlcNAc
Summary of the method: as §1

[20] = molecular target: GlcNAc(a1-4)Gal(b1-4)GlcNAc(b1-3)Gal(b1-4)GlcNAc(b1-3)Gal(b1-4)GlcNAc
Summary of the method: as §1

[21] = molecular target: GlcNAc(a1-4)Gal(b1-4)GlcNAc(b1-3)Gal(b1-4)[Fuc(a1-3)]GlcNAc(b1-3)Gal(b1-4)[Fuc(a1-3)]GlcNAc
Summary of the method: as §1

[22] = molecular target: GlcNAc(a1-6)Gal(b1-4)GlcNAc
Summary of the method: as §1

[23] = molecular target: GlcNAc(b1-2)Gal(b1-3)GalNAc
Summary of the method: as §1

[24] = molecular target: GlcNAc(b1-2)Man(a1-3)[GlcNAc(b1-2)Man(a1-6)]Man(b1-4)GlcNAc(b1-4)GlcNAc
Summary of the method: as §1

[25] = molecular target: GlcNAc(b1-2)Man(a1-3)[GlcNAc(b1-2)Man(a1-6)]Man(b1-4)GlcNAc(b1-4)[Fuc(a1-6)]GlcNAc
Summary of the method: as §1

[26] = molecular target: GlcNAc(b1-2)Man(a1-3)[GlcNAc(b1-4)][GlcNAc(b1-2)Man(a1-6)]Man(b1-4)GlcNAc(b1-4)GlcNAc
Summary of the method: as §1

[27] = molecular target: GlcNAc(b1-2)Man(a1-3)[GlcNAc(b1-4)][GlcNAc(b1-2)Man(a1-6)]Man(b1-4)GlcNAc(b1-4)[Fuc(a1-6)]GlcNAc
Summary of the method: as §1

KILRGVCKKIMRTFLRRISKDILTGKK [NK2 (Sus scrofa)]
glycan array binding signal (z-score) (Gal6S(b1-3)GlcNAc6S): 3.16
glycan array binding signal (z-score) (Gal6S(b1-4)Glc): -0.196
glycan array binding signal (z-score) (Gal6S(b1-4)Glc6S): 1.56
glycan array binding signal (z-score) (Gal6S(b1-4)GlcNAc): 1.22
glycan array binding signal (z-score) (Gal6S(b1-4)GlcNAc6S): 2.85
glycan array binding signal (z-score) (GalNAc(a1-3)Gal): -0.277
glycan array binding signal (z-score) (GalNAc(a1-3)GalNAc): -0.861
glycan array binding signal (z-score) [1]: -0.58
glycan array binding signal (z-score) [2]: -0.123
glycan array binding signal (z-score) (GalNAc(b1-3)Gal): -0.003
glycan array binding signal (z-score) [3]: -0.855
glycan array binding signal (z-score) [4]: 0.87
glycan array binding signal (z-score) [5]: -0.616
glycan array binding signal (z-score) (GalNAc(b1-3)GalNAc): 0.164
glycan array binding signal (z-score) (GalNAc(b1-3)GlcNAc): -0.451
glycan array binding signal (z-score) (GalNAc(b1-4)Gal(b1-4)Glc): 0.603
glycan array binding signal (z-score) (GalNAc(b1-4)GlcNAc): -0.865
glycan array binding signal (z-score) [6]: 0.202
glycan array binding signal (z-score) [7]: 1.16
glycan array binding signal (z-score) [8]: -0.686
glycan array binding signal (z-score) (GalNAc(b1-4)GlcNAc6S): 0.536
glycan array binding signal (z-score) (GalNAc(b1-6)GalNAc): -0.797
glycan array binding signal (z-score) (GalNAc3S(b1-4)GlcNAc): 0.948
glycan array binding signal (z-score) (GalNAc3S(b1-4)GlcNAc3S): 0.142
glycan array binding signal (z-score) [9]: -0.412
glycan array binding signal (z-score) (GalNAc4S6S(b1-4)GlcNAc): 1.04
glycan array binding signal (z-score) (GalNAc6S(b1-4)GlcNAc): 0.828
glycan array binding signal (z-score) (Glc(a1-4)Glc): 0.301
glycan array binding signal (z-score) [10]: 0.05
glycan array binding signal (z-score) (Glc(a1-6)Glc(a1-6)Glc): -0.341
glycan array binding signal (z-score) [11]: 0.727
glycan array binding signal (z-score) (Glc(b1-4)Glc): 0.034
glycan array binding signal (z-score) (Glc(b1-6)Glc): -0.404
glycan array binding signal (z-score) (GlcA(b1-3)Gal): -0.68
glycan array binding signal (z-score) (GlcA(b1-3)GlcNAc): 0.429
glycan array binding signal (z-score) (GlcA(b1-6)Gal): -0.184
glycan array binding signal (z-score) [12]: -0.244
glycan array binding signal (z-score) [13]: 0.836
glycan array binding signal (z-score) [14]: -0.689
glycan array binding signal (z-score) [15]: -0.861
glycan array binding signal (z-score) [16]: 0.065
glycan array binding signal (z-score) [17]: -0.403
glycan array binding signal (z-score) [18]: -0.502
glycan array binding signal (z-score) [19]: 0.419
glycan array binding signal (z-score) [20]: -0.435
glycan array binding signal (z-score) [21]: -0.295
glycan array binding signal (z-score) [22]: -1.07
glycan array binding signal (z-score) [23]: -0.471
glycan array binding signal (z-score) [24]: -0.252
glycan array binding signal (z-score) [25]: -0.136
glycan array binding signal (z-score) [26]: 0.574
glycan array binding signal (z-score) [27]: -1.11
